Measurements from the supplement of paper PMC10735217.
Where a name gives a salt, the structure may show the parent alone. The list shows a part of the results. Single values are uncertain here, since repeats match poorly.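 The human kidney-derived cells carry a stably integrated construct of eight TEAD-binding elements driving luciferase, read by luminescence in a drug-repurposing library screen. A compound counts as a hit when its signal is more than five robust Z scores above the plate mean.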

System: HEK293A TEAD-LUC reporter
Experiment: TEAD-luciferase reporter activity (YAP activation), robust Z score vs plate; higher = stronger YAP/TEAD activation
Conditions: 24 h

In the case of `Nc1nc(N)c2nc(CNc3ccc(C(=O)NC(CCC(=O)O)C(=O)O)cc3)cnc2n1` (stereo not given) [aminopterin, Syntrix], the TEAD-luciferase reporter activity (compound concentration: 200 nM) is reported as inactive: -0.202 and the TEAD-luciferase reporter activity (compound concentration: 10 uM) is reported as inactive: -0.429.
`Nc1nc(N)c2nc(CNc3ccc(C(=O)NC(CCC(=O)O)C(=O)O)cc3)cnc2n1` (stereo not given) [aminopterin] was tested, and the TEAD-luciferase reporter activity (compound concentration: 2 uM) was inactive: -0.775.
In the case of `O=C1NC(=O)C(Cc2ccc3oc(Cc4ccc5ccccc5c4)nc3c2)S1` (stereo not given), the TEAD-luciferase reporter activity (compound concentration: 200 nM) is reported as inactive: -1.88, the TEAD-luciferase reporter activity (compound concentration: 2 uM) is reported as inactive: -0.0223 and the TEAD-luciferase reporter activity (compound concentration: 10 uM) is reported as inactive: -1.37.
For `O=C1NCc2ccccc2CC12CCCN2CC1CCCCC1` (stereo not given), the TEAD-luciferase reporter activity (compound concentration: 200 nM) was inactive: 2.27 and the TEAD-luciferase reporter activity (compound concentration: 10 uM) was inactive: 1.41.
For `COc1cc(Nc2nc3ccccc3nc2NS(=O)(=O)c2cccc(NC(=O)c3ccc(C)c(OC)c3)c2)cc(OC)c1` [analog of pilaralisib], the TEAD-luciferase reporter activity (compound concentration: 200 nM) was inactive: -1.14, the TEAD-luciferase reporter activity (compound concentration: 2 uM) was inactive: 1.01 and the TEAD-luciferase reporter activity (compound concentration: 10 uM) was inactive: 0.395.
In the case of `O=c1cc(OCc2ccccc2)ccn1-c1ccc2c(cnn2CCN2CCCC2)c1`, the TEAD-luciferase reporter activity (compound concentration: 200 nM) is reported as inactive: 0.122, the TEAD-luciferase reporter activity (compound concentration: 2 uM) is reported as inactive: 0.685 and the TEAD-luciferase reporter activity (compound concentration: 10 uM) is reported as inactive: -0.139.
In the case of `CC/C=C\C/C=C\C/C=C\C/C=C\C/C=C\CCCC(=O)O` [DHA-metformin], the TEAD-luciferase reporter activity (compound concentration: 200 nM) is reported as inactive: 3.84, the TEAD-luciferase reporter activity (compound concentration: 2 uM) is reported as inactive: -1.84 and the TEAD-luciferase reporter activity (compound concentration: 10 uM) is reported as inactive: -1.38.
`CC(C(=O)O)N(C)CCCC1(c2ccc(Cl)cc2)CCc2cc(Cl)ccc21` (stereo not given) was tested, and the TEAD-luciferase reporter activity (compound concentration: 200 nM) was inactive: -1.4, the TEAD-luciferase reporter activity (compound concentration: 2 uM) was inactive: -0.545 and the TEAD-luciferase reporter activity (compound concentration: 10 uM) was inactive: 0.0704.
With `CC(C(=O)O)c1ccc(CC2CCCCC2=O)c(Cl)c1` (stereo not given) the TEAD-luciferase reporter activity (compound concentration: 200 nM) was inactive: -1.04, the TEAD-luciferase reporter activity (compound concentration: 2 uM) was inactive: -0.837 and the TEAD-luciferase reporter activity (compound concentration: 10 uM) was inactive: -0.467.
For `CCCCCNC(=N)N/N=C/c1c[nH]c2ccc(OC)cc12` [Tegaserod maleate], the TEAD-luciferase reporter activity (compound concentration: 2 uM) was inactive: -1.43.
In the case of `CCCCCNC(=N)N/N=C/c1c[nH]c2ccc(OC)cc12`, the TEAD-luciferase reporter activity (compound concentration: 200 nM) is reported as active: 6.72 and the TEAD-luciferase reporter activity (compound concentration: 10 uM) is reported as inactive: 1.55.
With `Nc1nc(Cl)nc2c1ncn2C1OC(CO)C(O)C1F` (stereo not given) [clofarabine] the TEAD-luciferase reporter activity (compound concentration: 200 nM) was inactive: -1.62, the TEAD-luciferase reporter activity (compound concentration: 2 uM) was inactive: -3 and the TEAD-luciferase reporter activity (compound concentration: 10 uM) was inactive: 1.47.
In the case of `CN1CCN(C(=O)/C=C2/c3ccccc3NC(=O)c3ccccc32)CC1` [Darenzepine], the TEAD-luciferase reporter activity (compound concentration: 200 nM) is reported as inactive: -1.13, the TEAD-luciferase reporter activity (compound concentration: 2 uM) is reported as inactive: 4.9 and the TEAD-luciferase reporter activity (compound concentration: 10 uM) is reported as inactive: 4.35.
`Cn1c(=O)c(Oc2ccc(F)cc2F)cc2cnc(NC3CCOCC3)nc21` [R1487 (Hydrochloride)] was tested, and the TEAD-luciferase reporter activity (compound concentration: 200 nM) was inactive: -1.46, the TEAD-luciferase reporter activity (compound concentration: 2 uM) was inactive: -2.09 and the TEAD-luciferase reporter activity (compound concentration: 10 uM) was inactive: -2.07.
In the case of `CC(=O)N[C@@H]1[C@@H](OC(C)C(=O)N[C@@H](C)C(=O)N[C@@H](CCC(=O)O)C(N)=O)[C@H](O)[C@@H](CO)O[C@@H]1O` (stereo partly drawn) [N-Acetylmuramyl-L-alanyl-L-isoglutamine], the TEAD-luciferase reporter activity (compound concentration: 200 nM) is reported as inactive: -0.209, the TEAD-luciferase reporter activity (compound concentration: 2 uM) is reported as inactive: -0.781 and the TEAD-luciferase reporter activity (compound concentration: 10 uM) is reported as inactive: -0.44.
In the case of `NC(=O)C1=CN([C@@H]2O[C@H](COP(=O)([O-])OP(=O)([O-])OC[C@H]3O[C@@H](n4cnc5c(N)ncnc54)[C@H](O)[C@@H]3O)[C@@H](O)[C@H]2O)C=CC1` [Coenzyme I], the TEAD-luciferase reporter activity (compound concentration: 200 nM) is reported as inactive: -0.108, the TEAD-luciferase reporter activity (compound concentration: 2 uM) is reported as inactive: -0.000413 and the TEAD-luciferase reporter activity (compound concentration: 10 uM) is reported as inactive: -0.0921.
With `Cc1cc(CN2CCC(N3C(=O)CC[C@@H]3C(=O)Nc3cccc(-c4nnnn4C)c3)CC2)ccc1Cl` the TEAD-luciferase reporter activity (compound concentration: 200 nM) was inactive: 0.95, the TEAD-luciferase reporter activity (compound concentration: 2 uM) was inactive: -1.21 and the TEAD-luciferase reporter activity (compound concentration: 10 uM) was inactive: -0.924.
`CN(C)CCCN1c2ccccc2Sc2ccc(C(F)(F)F)cc21` [Triflupromazine hydrochloride] was tested, and the TEAD-luciferase reporter activity (compound concentration: 200 nM) was active: 7.44, the TEAD-luciferase reporter activity (compound concentration: 2 uM) was inactive: -0.661 and the TEAD-luciferase reporter activity (compound concentration: 10 uM) was inactive: 0.088.
For `OC(CCCN1CCN(c2ncc(F)cn2)CC1)c1ccc(F)cc1` (stereo not given), the TEAD-luciferase reporter activity (compound concentration: 200 nM) was inactive: -1.54, the TEAD-luciferase reporter activity (compound concentration: 2 uM) was inactive: 0.394 and the TEAD-luciferase reporter activity (compound concentration: 10 uM) was inactive: 0.693.
For `CC1=Nc2ccccc2CC(c2ccccc2)N1C` (stereo not given) [dazepinil], the TEAD-luciferase reporter activity (compound concentration: 200 nM) was inactive: -0.747, the TEAD-luciferase reporter activity (compound concentration: 2 uM) was inactive: -1.37 and the TEAD-luciferase reporter activity (compound concentration: 10 uM) was inactive: -1.22.
For `Cn1nc(CS(C)(=O)=O)nc1NCCCOc1cccc(CN2CCCCC2)c1` [Sufotidine], the TEAD-luciferase reporter activity (compound concentration: 200 nM) was inactive: -1.45, the TEAD-luciferase reporter activity (compound concentration: 2 uM) was inactive: -1.25 and the TEAD-luciferase reporter activity (compound concentration: 10 uM) was inactive: -0.101.
`NC(=O)c1cnc2[nH]ccc2c1NC1[C@@H]2CC3C[C@H]1C[C@@](O)(C3)C2` (stereo not given in full) [peficitinib] was tested, and the TEAD-luciferase reporter activity (compound concentration: 200 nM) was inactive: -0.219, the TEAD-luciferase reporter activity (compound concentration: 2 uM) was active: 11.6 and the TEAD-luciferase reporter activity (compound concentration: 10 uM) was inactive: 3.75.
With `CC/C(=C(/c1ccc(OCCN(C)C)cc1)c1cccc(O)c1)c1ccccc1` the TEAD-luciferase reporter activity (compound concentration: 200 nM) was inactive: -0.59, the TEAD-luciferase reporter activity (compound concentration: 2 uM) was inactive: -0.41 and the TEAD-luciferase reporter activity (compound concentration: 10 uM) was inactive: -0.861.
With `CC(C)CN(C)c1ccccc1CS(=O)c1nc2ccccc2[nH]1` (stereo not given) [Leminoprazole] the TEAD-luciferase reporter activity (compound concentration: 200 nM) was inactive: -0.488, the TEAD-luciferase reporter activity (compound concentration: 2 uM) was inactive: -0.0788 and the TEAD-luciferase reporter activity (compound concentration: 10 uM) was inactive: 2.82.
`O=C(O)c1ccccc1OC1CN(C(c2ccccc2)c2ccccc2)C1` was tested, and the TEAD-luciferase reporter activity (compound concentration: 200 nM) was inactive: -2.79, the TEAD-luciferase reporter activity (compound concentration: 2 uM) was inactive: 0.848 and the TEAD-luciferase reporter activity (compound concentration: 10 uM) was inactive: 0.33.
For `Cc1ccc(C(=O)N2CCC(N3CCCNC3=O)CC2)cc1`, the TEAD-luciferase reporter activity (compound concentration: 200 nM) was inactive: -3.35 and the TEAD-luciferase reporter activity (compound concentration: 10 uM) was inactive: -1.45.
For `COC1/C=C/OC2(C)Oc3c(C)c(O)c4c(O)c(cc(O)c4c3C2=O)NC(=O)/C(C)=C\C=C\C(C)C(O)C(C)C(O)C(C)C(OC(C)=O)C1C` (stereo not given) [rifamycin], the TEAD-luciferase reporter activity (compound concentration: 200 nM) was inactive: -0.872, the TEAD-luciferase reporter activity (compound concentration: 2 uM) was inactive: -0.596 and the TEAD-luciferase reporter activity (compound concentration: 10 uM) was inactive: 2.28.
With `CC[C@@](C)(Nc1ccnc(-c2c[nH]c3ncccc23)n1)C(=O)NCC(F)(F)F` [decernotinib] the TEAD-luciferase reporter activity (compound concentration: 200 nM) was inactive: -0.128, the TEAD-luciferase reporter activity (compound concentration: 2 uM) was inactive: 0.119 and the TEAD-luciferase reporter activity (compound concentration: 10 uM) was inactive: 0.397.
For `CC1=C(C/C=C(\C)CCC[C@H](C)CCC[C@H](C)CCCC(C)C)C(=O)c2ccccc2C1=O` [Phytomenadione], the TEAD-luciferase reporter activity (compound concentration: 200 nM) was inactive: 0.27, the TEAD-luciferase reporter activity (compound concentration: 2 uM) was inactive: -1.72 and the TEAD-luciferase reporter activity (compound concentration: 10 uM) was inactive: 0.841.
`CN1C(=O)N(C[C@H](C(=O)NO)[C@@H](CC2CCCC2)C(=O)N2CCCCC2)C(=O)C1(C)C` [Cipemastat] was tested, and the TEAD-luciferase reporter activity (compound concentration: 200 nM) was inactive: -2.82, the TEAD-luciferase reporter activity (compound concentration: 2 uM) was inactive: 0.442 and the TEAD-luciferase reporter activity (compound concentration: 10 uM) was inactive: 1.71.
With `CC(=O)NCC(=O)N1Cc2ccccc2CC2(CCCCN2CC2CCNCC2)C1` (stereo not given) the TEAD-luciferase reporter activity (compound concentration: 200 nM) was inactive: -1.88 and the TEAD-luciferase reporter activity (compound concentration: 10 uM) was inactive: 0.283.
With `CC(C)OC(=O)COC/C=C\C[C@@H]1[C@@H](CC[C@@H](O)C2CCCCC2)[C@H](O)C[C@H]1Cl` the TEAD-luciferase reporter activity (compound concentration: 200 nM) was inactive: 0.849, the TEAD-luciferase reporter activity (compound concentration: 2 uM) was inactive: -1.18 and the TEAD-luciferase reporter activity (compound concentration: 10 uM) was inactive: 0.648.
With `CC(C)COc1ccc(CNC(=O)N(Cc2ccc(F)cc2)C2CCN(C)CC2)cc1` [pimavanserin tartrate] the TEAD-luciferase reporter activity (compound concentration: 200 nM) was inactive: -0.0438, the TEAD-luciferase reporter activity (compound concentration: 2 uM) was inactive: 0.0167 and the TEAD-luciferase reporter activity (compound concentration: 10 uM) was inactive: -0.723.
